Test results taken from doi:10.1101/2024.12.06.627129.
No constants are given. Whether binding was seen depends on the method and setting. In cells and extracts the contact can be indirect. Some results given as binding are weak or reduced against the parent protein; the word gives no strength.

Sequences of proteins named here, by UniProt entry; tags and fusion partners are left off.
UniProt P53552: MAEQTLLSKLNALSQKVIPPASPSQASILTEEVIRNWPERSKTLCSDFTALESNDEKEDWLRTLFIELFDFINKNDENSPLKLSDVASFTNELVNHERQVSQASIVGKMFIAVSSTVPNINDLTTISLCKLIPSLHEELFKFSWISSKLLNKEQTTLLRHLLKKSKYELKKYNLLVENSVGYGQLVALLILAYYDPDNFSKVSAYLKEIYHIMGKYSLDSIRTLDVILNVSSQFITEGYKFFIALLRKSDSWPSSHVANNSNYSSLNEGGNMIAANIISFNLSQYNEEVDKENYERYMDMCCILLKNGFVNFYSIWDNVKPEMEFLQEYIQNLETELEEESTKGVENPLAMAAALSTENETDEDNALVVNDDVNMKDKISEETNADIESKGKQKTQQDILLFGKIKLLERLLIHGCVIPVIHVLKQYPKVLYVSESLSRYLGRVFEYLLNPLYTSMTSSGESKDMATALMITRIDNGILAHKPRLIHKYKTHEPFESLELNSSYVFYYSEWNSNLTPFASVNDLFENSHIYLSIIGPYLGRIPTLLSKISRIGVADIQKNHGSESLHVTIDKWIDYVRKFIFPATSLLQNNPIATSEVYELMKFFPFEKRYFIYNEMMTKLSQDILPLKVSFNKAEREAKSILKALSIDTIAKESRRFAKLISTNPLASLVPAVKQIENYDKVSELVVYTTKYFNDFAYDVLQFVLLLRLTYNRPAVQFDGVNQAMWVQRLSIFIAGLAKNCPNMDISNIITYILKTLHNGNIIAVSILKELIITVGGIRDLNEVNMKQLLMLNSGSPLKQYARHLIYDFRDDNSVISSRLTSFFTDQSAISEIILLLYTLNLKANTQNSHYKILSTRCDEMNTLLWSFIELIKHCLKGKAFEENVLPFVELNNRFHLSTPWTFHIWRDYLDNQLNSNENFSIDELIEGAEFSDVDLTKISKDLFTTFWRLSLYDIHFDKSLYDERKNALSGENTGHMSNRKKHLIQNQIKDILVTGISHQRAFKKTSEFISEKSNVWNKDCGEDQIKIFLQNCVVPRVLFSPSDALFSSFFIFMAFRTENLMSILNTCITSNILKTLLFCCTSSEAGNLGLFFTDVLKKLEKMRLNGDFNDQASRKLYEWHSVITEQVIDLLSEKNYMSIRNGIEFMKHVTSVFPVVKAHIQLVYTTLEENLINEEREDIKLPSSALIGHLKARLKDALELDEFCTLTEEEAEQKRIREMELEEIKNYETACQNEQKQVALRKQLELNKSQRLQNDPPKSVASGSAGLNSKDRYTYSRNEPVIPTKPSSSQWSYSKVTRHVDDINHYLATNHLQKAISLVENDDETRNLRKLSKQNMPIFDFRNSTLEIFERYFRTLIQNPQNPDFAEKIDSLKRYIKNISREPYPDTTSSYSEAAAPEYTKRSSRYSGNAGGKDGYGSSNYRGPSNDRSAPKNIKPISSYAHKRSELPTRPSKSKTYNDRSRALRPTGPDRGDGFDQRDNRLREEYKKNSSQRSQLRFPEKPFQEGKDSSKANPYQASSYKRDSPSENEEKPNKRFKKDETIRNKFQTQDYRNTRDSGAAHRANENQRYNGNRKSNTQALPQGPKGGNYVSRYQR

T1: Thp2-TAP (S. cerevisiae) (UniProt O13539)
T1 sequence: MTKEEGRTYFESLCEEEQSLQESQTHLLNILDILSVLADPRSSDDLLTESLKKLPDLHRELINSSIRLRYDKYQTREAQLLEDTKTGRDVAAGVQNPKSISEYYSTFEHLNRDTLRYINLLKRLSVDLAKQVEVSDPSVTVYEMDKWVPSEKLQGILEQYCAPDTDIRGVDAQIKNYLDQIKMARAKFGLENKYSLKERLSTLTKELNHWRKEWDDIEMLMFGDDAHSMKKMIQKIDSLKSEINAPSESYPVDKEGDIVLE


Target: T1, Thp2-TAP (S. cerevisiae)
Assay: co-IP

| Molecule | binding |
| --- | --- |
| Tho2 (from UniProt P53552 1-1597) | binds |
| Mft1 (protein, UniProt P33441 1-392) MPLSQKQIDQVRTKVHYSEVDTPFNKYLDILGKVTKLTGSIINGTLSNDDSKIEKLTEQNISQLKESAHLRFLDLQSSIDTKKVADENWETCQQETLAKLENLKDKLPDIKSIHSKLLLRIGKLQGLYDSVQVINREVEGLSEGRTSLVVTRAEWEKELGTDLVKFLIEKNYLKLVDPGLKKDSSEERYRIYDDFSKGPKELESINASMKSDIENVRQEVSSYKEKWLRDAEIFGKITSIFKEELLKRDGLLNEAEGDNIDEDYESDEDEERKERFKRQRSMVEVNTIENVDEKEESDHEYDDQEDEENEEEDDMEVDVEDIKEDNEVDGESSQQEDNSRQGNNEETDKETGVIEEPDAVNDAEEADSDHSSRKLGGTTSDFSASSSVEEVK | binds |
